# Measurements as given in the supplement of paper PMC3334620.
# Whole data set: some 33,000 sequences, median “E-score (-0.5 to 0.5)” near -0.0014, cut for the highest 2% near 0.25. This is one part of the list.
# Target: T1, Cad1 (UniProt P24813)
# T1 sequence: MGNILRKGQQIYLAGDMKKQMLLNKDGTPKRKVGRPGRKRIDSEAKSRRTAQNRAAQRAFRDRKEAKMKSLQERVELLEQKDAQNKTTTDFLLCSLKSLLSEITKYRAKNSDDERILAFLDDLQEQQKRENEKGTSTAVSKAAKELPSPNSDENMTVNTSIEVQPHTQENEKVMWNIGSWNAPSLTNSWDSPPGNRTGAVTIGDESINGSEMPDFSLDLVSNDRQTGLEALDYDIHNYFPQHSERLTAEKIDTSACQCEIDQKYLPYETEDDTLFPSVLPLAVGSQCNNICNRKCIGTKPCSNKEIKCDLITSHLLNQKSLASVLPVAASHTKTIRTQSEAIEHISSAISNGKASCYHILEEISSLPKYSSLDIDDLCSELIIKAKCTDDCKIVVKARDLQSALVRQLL
# Test: PBM E-score (8-mer binding enrichment) (E-score (-0.5 to 0.5)); higher = stronger / more preferred TF binding
# Conditions: protein concentration: 100 nM; construct: GST-full length
# How it was run: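 Using PURExpress in vitro transcription/translation, GST-tagged yeast transcription factors were made in full-length or DNA-binding-domain form. These were applied at about 100-200 nM to double-stranded universal all-10-mer Agilent arrays, and bound protein was detected with fluorescent anti-GST. Scans were normalised with masliner before the Universal PBM Analysis Suite assigned E-scores to ungapped eight-base words pooled with their reverse complements.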
row,Sequence,PBM E-score
1,TCAGGGGA,-0.0758
2,AAATCTCG,0.157
3,CAGGAGTA,-0.0237
4,AGAGTTTC,-0.211
5,GAACCCTA,-0.0855
6,CGGATTTC,-0.0539
7,CCCCGCAA,0.145
8,CCACCTTC,-0.229
9,CAGTGAGG,-0.219
10,GGTTCGAA,0.175
11,CCTCTCAA,-0.0605
12,GATTGAAC,0.0844
13,ACGATATC,0.119
14,CCCTTCCA,-0.233
15,AACCCCGC,-0.159
16,AATGCTCG,0.0962
17,CAAAAACA,0.0371
18,AATTGTTA,0.0493
19,CAATAAAC,0.161
20,ACCCAACT,0.0764
21,ATTGGTAC,0.0215
22,ACCGATCA,0.168
23,ACTTTGCA,0.176
24,CCGTGTTC,0.12
25,TACTCAAA,0.0262

row,Sequence,PBM E-score
1,CCAGCCTA,-0.107
2,AACGAATC,0.119
3,TACATGCA,0.0559
4,TGCGGAAA,-0.0159
5,CACTAGAG,0.0247
6,AGTCGCGG,-0.179
7,AACAGCGG,-0.0185
8,TCTCGAAA,0.106
9,GGTGGAAC,0.0269
10,CGGGCTAG,-0.0655
11,ACGTTACA,0.109
12,AAGTTAAT,0.13
13,AAGTCCCG,-0.0615
14,AAATTGTC,0.0649
15,ACGAGAAA,0.111
16,AGCTTTGC,-0.073
17,GAGCCTCC,-0.22
18,TAGATGCA,0.0548
19,ACTGTTCC,-0.00445
20,ACATATCC,0.161
21,ACATGAAG,0.0159
22,CGCCCCAG,-0.125
23,CCTTGATC,0.0457
24,TTATATAA,0.427
25,GAGCATGC,-0.0646

# A second format for part of the listing above.
row | Sequence | PBM E-score
2 | AACGAATC | 0.119
3 | TACATGCA | 0.0559
4 | TGCGGAAA | -0.0159
5 | CACTAGAG | 0.0247
6 | AGTCGCGG | -0.179
7 | AACAGCGG | -0.0185
8 | TCTCGAAA | 0.106

# Going on with the list:

row,Sequence,PBM E-score
1,AGCGGCGG,0.0804
2,AGCATATA,0.0244
3,CACAATGG,0.14
4,CATCATTA,0.235
5,AGATACAA,0.256
6,CTCTACAA,0.0426
7,GGGTCAGA,-0.253
8,AACCGCAC,0.082
9,CCAACTGC,-0.0739
10,ACAGCGGA,0.0263
11,AAGCGGGA,-0.0393
12,CACCGAGA,-0.19
13,GGTGCTAC,-0.16
14,CCGGATTA,0.16
15,AGCGGACC,-0.113
16,GATTAGAC,-0.0403
17,GCACATGC,-0.00748
18,GAGTAAGC,0.167
19,ATACTCAC,-0.111
20,ATGAGGGG,-0.15
21,CGTACATC,-0.0994
22,ACCCGCAT,-0.0504
23,ATTTTGTG,0.111
24,GGCGTCAA,0.0892
25,CCACAGCG,0.0303

row,Sequence,PBM E-score
1,GCCCGCCA,-0.0928
2,CAGCTTAG,0.0843
3,ATTTGCAC,0.0893
4,CTGTCGCA,-0.192
5,ATAACGGC,0.131
6,ACCAGAAT,-0.0108
7,ATTGCTTA,0.176
8,ACACATCG,0.0172
9,CATAAACG,0.0558
10,GTAGCTTA,0.235
11,CATCCTCC,-0.313
12,AGAACTTG,0.157
13,AATGGCTG,-0.0676
14,CGCGGCCA,-0.0454
15,CCGCATTC,0.0508
16,ACCACTCA,-0.0789
17,CCTCGCCC,0.0207
18,CAACCCTA,-0.0439
19,ATAGTCGC,0.00692
20,CGTGGCTC,-0.351
21,ATGTGAGA,0.0169
22,ATTACTCG,0.221
23,ATACTGTG,-0.0583
24,ATCATTAC,0.206
25,CTTCTATC,-0.0429

row,Sequence,PBM E-score
1,CCGGCCTA,-0.128
2,AAGCCAGC,0.0299
3,CAGCACAA,0.128
4,GTTGATTA,0.228
5,CTAATCAG,0.227
6,ACGGGGCT,-0.188
7,GAGGTAAC,-0.0332
8,CCGCCATC,-0.0295
9,TATCTACA,0.173
10,ACAAGAAC,0.251
11,CGCCCAAA,0.062
12,CAACCCGC,0.0759
13,AACGACGC,-0.0374
14,ACTCTCCA,-0.0537
15,ATCCCTTC,-0.138
16,GCCAGTGA,-0.112
17,CGCTGAAC,0.0859
18,AACGCCTG,0.0294
19,CACTTACG,0.0325
20,ACAATATG,0.193
21,CCATAAAA,0.0981
22,ACATCACC,-0.108
23,TCACAGAA,0.0412
24,GACAGCCA,0.012
25,CTTGAACC,0.0288

row,Sequence,PBM E-score
1,AATATATT,0.322
2,ACAAAATA,0.145
3,ACTCTAAC,-0.0544
4,GATGAATC,0.149
5,CGTGTAGC,-0.00953
6,CCGAACAG,0.0286
7,CTCGCGGC,0.0515
8,AGCCGCCC,-0.0349
9,CTATACTC,-0.084
10,AGTGAGTG,0.0185
11,CGATTCCC,0.0953
12,AATTCTTG,0.108
13,AGTCGCAC,-0.27
14,AACCCGAT,0.115
15,CAGGGTAC,-0.0335
16,CAGCCGGC,0.132
17,CCTGACCC,-0.152
18,CAGCGCTA,0.157
19,TACGGTAA,0.158
20,CTAACCAA,0.0815
21,GGGAGTGA,-0.00669
22,AGAAGGCT,-0.299
23,ATAAAGTC,-0.0142
24,AGGTTATA,0.0216
25,CCTCGAAG,-0.0407

# Retrieved one by one from the list above (two):
row,Sequence,PBM E-score
25,CTTCTATC,-0.0429
7,GGGTCAGA,-0.253

# (further entries)

row,Sequence,PBM E-score
1,ATACTGAT,0.238
2,GCTGAACA,0.068
3,CCGTAGTA,-0.0697
4,GGCTTCAA,-0.139
5,AGCTTTGA,0.0761
6,CGGAAGTC,0.052
7,ACCCGGCC,-0.195
8,AAAGAGTA,-0.122
9,CTTTGTGA,-0.0554
10,CCTTCTCA,-0.109
11,AGGCAACG,0.0208
12,GATTGGTA,0.196
13,CCTGAAAG,0.0786
14,GACCACAC,-0.0773
15,GACCCCTC,-0.237
16,GGCCCTAC,-0.191
17,GCGCGCGC,0.417
18,AGGGTGTA,-0.0858
19,AGGCTACT,-0.196
20,GATTCACC,-0.0618
21,GTCGACCA,0.0522
22,AGCGCACC,0.0352
